Data taken from PubChem BioAssay AID485314 (National Center for Advancing Translational Sciences (NCATS), 2010).
Values joined by “and” are separate entries in the source; they are usually repeats but may differ in a detail not shown here. Identical values can stand only once. Out of some 340,000 compounds screened, about 4,500 (1.3%) were called active. The inconclusive results got no clear call from the source; some entries with a clear call stand among them for comparison. Calls follow the shape of the dose curve; as a rule, active = well fitted inhibition curve with a large enough effect; inconclusive = small, poorly fitted or top-dose-only effect, or another doubt; inactive = no such curve, though single readings can be large or run the other way. Potencies beside an inconclusive call are fits to weak or partial responses and may not hold up.

Biological target: DNA polymerase beta (Homo sapiens) (UniProt P06746)
Assay: qHTS Assay for Inhibitors of DNA Polymerase Beta
Details: Pol beta primer extension/strand displacement, fluorescence kinetic; activity change, negative = inhibition: at 114 µM (top of the series)
Method in brief: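 Pol beta (10 nM) and compounds were preincubated 15 min at room temperature, then 50 nM substrate (final) started primer extension/strand displacement. Reads were taken at 0 and 10 min; concentration-response data were fitted to a four-parameter Hill equation.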
% is scaled to controls: 0 for no effect and ±100 for the full control effect; potency is read from the fitted curve at half-maximal effect.

Potency, inconclusive:
Cc1ccc(NC(=O)Cn2nnc(C(=O)NCCc3ccccc3)c2N)cc1Cl 10 µM [inhibitor, partial curve] and 89.1 µM [inhibitor, partial curve], CCc1cccc(C)c1NC(=O)CCn1nc(C)c2c(C)n(-c3ccccc3)nc2c1=O 100 µM [inhibitor, single point], Cc1cc(=O)[nH]c(-n2nc(C)c(Oc3ccccc3O)c2C)n1 35.5 µM [inhibitor, single point], O=C(NN1C(=O)/C(=C\c2ccc(O)c([N+](=O)[O-])c2)SC1=S)c1ccccc1Cl 63.1 µM [inhibitor, single point], CCc1ccc(-c2cn(-c3nc(C)cc(C)n3)c(=N)o2)cc1 8.91 µM [inhibitor, full curve, poor fit], CCOC(=O)CSc1nnc(NC(=O)c2cccc(S(=O)(=O)N3CCCC3)c2)s1 89.1 µM [inhibitor, single point], O=C(OC1CCOC1=O)c1ccc(NS(=O)(=O)c2cccs2)cc1 (stereo not drawn) 15.8 µM [inhibitor, full curve, poor fit], CSc1nc2sc3c(c2c(=O)n1-c1ccccc1)CCC(C(C)(C)C)C3 (stereo not drawn) 0.355 µM [inhibitor, partial curve], Cc1onc(C(=O)NN)c1C(=O)N1CCN(C(c2ccccc2)c2ccccc2)CC1 2.24 µM [inhibitor, partial curve, poor fit], CC1(C)Cc2c(ccc3ccccc23)C2=C(C(=O)N3CCCC3)C(=O)C(=O)N21 89.1 µM [inhibitor, single point], COC(=O)c1ccc(NC2=CC(=O)CC(C)(C)C2)cc1 89.1 µM [inhibitor, single point], CCOc1cccc(C(=O)Nc2nnc(-c3ccco3)s2)c1 89.1 µM [inhibitor, single point], Cn1c(=O)n(CCCc2ccccc2)c(=O)c2c1nc1n2CCN1c1ccc(F)cc1 39.8 µM [inhibitor, partial curve], CC(NC(=O)Cn1cc(C(=O)C2CC2)c2ccccc21)c1ccccc1 (stereo not drawn) 5.01 µM [inhibitor, single point], O=c1c2ccccc2nc2c3ccccc3c(NCc3ccccn3)nn12 0.316 µM [inhibitor, full curve, poor fit], c1ccc2c3c(cc(N4CCOCC4)c2c1)OC1(N2CCOCC2)CCCCC1O3 (stereo not drawn) 20 µM [inhibitor, full curve, poor fit], Cc1ccccc1N(CC(=O)NCCc1ccccc1)C(=O)CCC(=O)Nc1ccccn1 89.1 µM [inhibitor, single point], COc1ccc(NC(=O)c2ccco2)cc1NC(=O)COc1ccc(Cl)cc1C 4.47 µM [inhibitor, full curve], CO/N=C(\C(=O)N[C@@H]1C(=O)N2C(C(=O)O)=C(COC(N)=O)CS[C@H]12)c1ccco1 22.4 µM [inhibitor, full curve], COc1ccccc1C(=O)NNC(=O)c1ccc(Br)o1 39.8 µM [inhibitor, partial curve, poor fit], Cc1ccc(NC(=O)CSc2nc(-c3ccccc3Cl)nc3cc(=O)[nH]n23)c(C)c1 25.1 µM [inhibitor, full curve, poor fit], O=C1OC(/C(=C\Nc2ccc(F)cc2F)[N+](=O)[O-])c2ccccc21 (stereo not drawn) 89.1 µM [inhibitor, single point], Cc1c(Cl)cccc1NC(=S)N1CCN(S(=O)(=O)c2cccs2)CC1 89.1 µM [inhibitor, single point], O=C(Nc1ccccc1O)c1csc2c1CCCC2 89.1 µM [inhibitor, single point], Cc1ccccc1CSCC(=O)NCc1ccco1 39.8 µM [inhibitor, full curve], Cc1ccc2nc3sc(-c4nnc(-c5ccccc5[N+](=O)[O-])o4)c(N)c3cc2c1 100 µM [inhibitor, single point], Cc1ccc(Oc2ccc(-c3nnc(-c4ccccc4)o3)cc2[N+](=O)[O-])cc1C 89.1 µM [inhibitor, single point], Nc1c(-c2ccc(Cl)cc2)cnc2ncnn12 20 µM [inhibitor, partial curve, poor fit]

Potency, active:
Cc1ccc(SCC(=O)NC(=O)NCc2ccco2)cc1C 39.8 µM, Cc1cccn2c(=O)c3cc(S(=O)(=O)c4ccccc4)c(=N)n(Cc4ccco4)c3nc12 8.91 µM, O=C(c1cc2cc([N+](=O)[O-])ccc2oc1=O)n1cccn1 31.6 µM, CC(=O)c1ccc2c3c(cccc13)C(=O)N(CCc1ccccc1)C2=O 31.6 µM, O=C(NNC(=O)C1[C@H]2CCCC[C@@H]12)c1ccc(=O)oc1 (stereo partly drawn) 79.4 µM, COc1cc(OC)c(N(C)C(=O)c2sc3nc4n(c(=O)c3c2C)CCCC4)cc1Cl 89.1 µM, Cc1sc2ncnc(NCc3ccco3)c2c1C 44.7 µM, O=Cc1cn(CCC(=O)O)nc1-c1cc2ccccc2o1 17.8 µM

Activity change, negative = inhibition, inactive:
COc1cccc(N2CC(NC(=O)C3CC3)CC2=O)c1 (stereo not drawn) 1.02%, O=C(COc1ccccc1)NNC(=O)c1cc2ccccc2o1 -2.18%, CCOC(=O)c1cc2c(=O)n3ccccc3nc2n(Cc2ccco2)c1=NC(=O)c1ccc(OCC)cc1 19.7%, CCOC(=O)C1CCCN(c2cc(=O)n(C3CCCCC3)c(=O)[nH]2)C1 (stereo not drawn) -10.2%, O=C(Nc1ccc2c(c1)OCCO2)c1cccc(Cl)c1Cl -1.03%, CC1CCN(c2c([N+](=O)[O-])c(=O)n(-c3ccccc3)c3ccccc23)CC1 24.7%, COC(=O)c1c(C)nn(-c2ccc(F)cc2)c1-n1cccc1 2.17%
